Test results published in patent publication US5840691A, “Method for treating ischemia using polypeptides with fibronectin activity” (priority 1995, dated 1998).
Part of at least one peptide drawing is inferred or uncertain, most often the ends. Ends that are not written are not given here.

Columns and labels:
[1] = tested on: adhesion of TGF-β1 (-/-) leukocytes to fibronectin substrates (33 kD heparin-binding fragment); assay: Cell attachment inhibition assay, leukocytes on fibronectin substrates; assay type: cell-based, mice; details: in vitro, polypeptides tested individually
SCW-induced arthritis = SCW-induced arthritis in Lewis rats (Articular Index, histology); assay type: in vivo; details: for articular index (AI), day 28: OA-coupled peptides i.v. on days 11-15 (chronic synovitis), OA control 11.3±0.5; for articular index (AI), day 27 / articular index (AI), day 3: OA-coupled peptides, 1 mg i.v. daily on days 0-4; for articular index (AI), day 27: chronic inflammation, OA control 10.5±0.3; for articular index (AI), day 3: height of the acute response, max score 16, OA control 8.5±1.2; for articular index (AI), day 24: uncoupled peptides, 1 mg i.v. on days 0-4, untreated 9.7
[2] = tested on: adhesion of TGF-β1 (-/-) leukocytes to endothelial cell monolayers (mouse pulmonary artery endothelial cells); assay: Cell attachment inhibition assay, leukocytes on endothelial cell monolayers; assay type: cell-based, mice; details: in vitro, polypeptides tested individually
[3] = tested on: cardiac allograft rejection; assay: Rat heterotopic heart allograft transplant model, histologic evaluation; assay type: in vivo, rat (Brown Norway donor hearts, Lewis recipients); details: 3 i.v. doses, 1 mg of each peptide; 72 hours

Row | Sequence | adhesion of TGF-β1 (-/-) leukocytes to fibronectin substrates [1] | articular index (AI), day 28 (SCW-induced arthritis) | articular index (AI), day 27 (SCW-induced arthritis) | articular index (AI), day 3 (SCW-induced arthritis) | articular index (AI), day 24 (SCW-induced arthritis) | adhesion of TGF-β1 (-/-) leukocytes to endothelial cell monolayers [2] | rejection (myocyte damage) [3]
1 | DELPQLVTLPHPNLHGPEILDVPST [CS-1, asp-glu-leu-pro-gln-leu-val-thr-leu-pro-his-pro-asn-leu-his-gly-pro-glu-ile-leu-asp-val-pro-ser-thr] | blocked | 4.2±1.5 | 2.5±0.7 | 5.6±0.8 | 2.2 | blocked | no rejection
2 | YEKPGSPPREVVPRPRPGV [FNI, tyr-glu-lys-pro-gly-ser-pro-pro-arg-glu-val-val-pro-arg-pro-arg-pro-gly-val] | blocked | 1.5±1.0 | 1.5±1.1 | 2.0 ±0.9 | 5.0 | blocked | 
3 | KNNQKSEPLIGRKKT [FNII, lys-asn-asn-gln-lys-ser-glu-pro-leu-ile-gly-arg-lys-lys-thr] |  | 4.9±1.2 | 2.3±0.9 | 6.6±1.9 | 1.7 |  | 
4 | SPPRRARVT [FNIV, ser-pro-pro-arg-arg-ala-arg-val-thr] |  | 2.0±1.0 | 8.6±0.3 | 9.2 ±0.97 | 1.0 |  | 
5 | ITVYAVTGRGDSPASSKPIS [MC-2, ile-thr-val-tyr-ala-val-thr-gly-arg-gly-asp-ser-pro-ala-ser-ser-lys-pro-ile-ser] | blocked | 2.7±1.9 | 1.25±0.25 | 5.5±0.84 | 1.3 | blocked | no rejection
